Results published in article PMC6802665.
No constants are given. Whether binding was seen depends on the method and setting. In cells and extracts the contact can be indirect.

Chains of the proteins cited; added tags and fusions are not shown.
UniProt P14602: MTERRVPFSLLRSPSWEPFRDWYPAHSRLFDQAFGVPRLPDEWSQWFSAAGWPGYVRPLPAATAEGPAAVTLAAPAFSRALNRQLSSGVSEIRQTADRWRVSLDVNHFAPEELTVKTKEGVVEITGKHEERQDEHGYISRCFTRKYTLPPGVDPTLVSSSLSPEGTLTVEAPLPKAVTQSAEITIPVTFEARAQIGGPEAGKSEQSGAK

Biological target: heat shock protein 25 (HSP25), mouse (mouse) (UniProt P14602)
Assay: co-IP

B1: ETS1, mouse (protein, UniProt P27577 1-440)
chain: MKAAVDLKPTLTIIKTEKVDLELFPSPDMECADVPLLTPSSKEMMSQALKATFSGFTKEQQRLGIPKDPRQWTETHVRDWVMWAVNEFSLKGVDFQKFCMSGAALCALGKECFLELAPDFVGDILWEHLEILQKEDVKPYQVNGANPTYPESCYTSDYFISYGIEHAQCVPPSEFSEPSFITESYQTLHPISSEELLSLKYENDYPSVILQDPLQTDTLQTDYFAIKQEVLTPDNMCLGRASRGKLGGQDSFESVESYDSCDRLTQSWSSQSSFNSLQRVPSYDSFDYEDYPAALPNHKPKGTFKDYVRDRADLNKDKPVIPAAALAGYTGSGPIQLWQFLLELLTDKSCQSFISWTGDGWEFKLSDPDEVARRWGKRKNKPKMNYEKLSRGLRYYYDKNIIHKTAGKRYVYRFVCDLQSLLGYTPEELHAMLDVKPDAD
- binding: no binding
